Data as given in PubChem BioAssay AID1259424 (University of Nebraska Medical Center, 2018)

Test: 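Find knockdowns that reproduce the expression shifts seen after KSR1 loss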 (primary screen)
Cell system: human HCT116 colon cancer cells
Reagent: siRNA pool against human genes, 50 nM
Measured: 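Six signature mRNAs by branched-DNA multiplex assay, scaled to two housekeeping genes and non-targeting median, log2; matched to mean KSR1 knockdown profile by Pearson correlation and euclidean distance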
Scale: mean correlation with KSR1 profile: higher = expression change more like KSR1 knockdown; mean distance from KSR1 profile: higher = expression change less like KSR1 knockdown
In all, the deposit lists about 14,000 reagents; below is a random part of them. 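Higher correlation or smaller distance means closer resemblance to KSR1 loss; control wells, including KSR1 knockdowns, recur on many plates.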 Not all columns of the deposit are shown. The record does not give: the time to read-out.

| gene knocked down | mean correlation with KSR1 profile | mean distance from KSR1 profile |
| --- | --- | --- |
| ABHD14B | 0.206 | 5.19 |
| FEZF2 | 0.544 | 1.17 |
| TRIM25 | 0.536 | 1.08 |
| FGFBP2 | 0.896 | 1.32 |
| OPRD1 | 0.342 | 2.77 |
| CSTPP1 | -0.258 | 1.63 |
| PCYOX1 | 0.23 | 2.29 |
| CSNK1G2 | 0.0126 | 2.73 |
| ID2 | -0.688 | 3.47 |
| ECI2 | -0.41 | 3.42 |
| ZNF385A | -0.309 | 2.1 |
| POGLUT2 | 0.524 | 1.01 |
| CHRNA2 | 0.508 | 0.972 |
| GJB1 | -0.0312 | 1.43 |
| RS1 | 0.0712 | 1.72 |
| OR5P2 | 0.687 | 1.75 |
| WNT16 | -0.578 | 2.11 |
| GGA2 | -0.609 | 3.23 |
| ZNF23 | 0.125 | 1.67 |
| SRSF2 | 0.307 | 1.83 |

Records listed so far whose gene name starts with F or f (2):
| gene knocked down | mean correlation with KSR1 profile | mean distance from KSR1 profile |
| --- | --- | --- |
| FEZF2 | 0.544 | 1.17 |
| FGFBP2 | 0.896 | 1.32 |
